These are yes or no findings as the source states them, for the method shown. Binding seen in cells or lysates may run through a third protein. Some results given as binding are weak or reduced against the parent protein; the word gives no strength.
Biological target: GST-RhoA (UniProt P61586)
Assay: pull-down; GST-RhoA beads loaded with 0.1 mmol/L GTPgammaS (30 °C, 15 min) as bait; incubated with total cellular protein of MDA-MB-231 cells at 4 °C for 90 min; bound Daam1 detected by immunoblotting; cells serum-starved and treated with 500 ng/mL rWnt5a for 0-60 min, or transfected with Dvl2 mutants, Dvl2 siRNA or RhoA constructs; only the target purified

By UniProt entry, the sequences of proteins in these tests, tags left out.
UniProt P61586: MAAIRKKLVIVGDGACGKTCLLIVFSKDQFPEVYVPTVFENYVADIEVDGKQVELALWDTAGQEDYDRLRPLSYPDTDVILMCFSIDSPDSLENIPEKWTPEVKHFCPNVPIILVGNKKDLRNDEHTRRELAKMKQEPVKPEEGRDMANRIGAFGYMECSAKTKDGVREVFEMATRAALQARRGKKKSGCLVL

- binding: binds
Substance: Dishevelled-associated activator of morphogenesis 1 (Daam1) (from UniProt Q9Y4D1-1 1-1078)

— article PMC3360006
